Where a name gives a salt, the structure may show the parent alone. ± gives the standard deviation of the averaged measurements. This is one part of the list. Values are raw readings; no control value is given beside them.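 Across three biological replicates, HeLa cells were imaged for ribosome assembly using ENP1 staining (export block present or absent) or inducible tagged ribosomal protein reporters. Machine learning classified each cell's signal localization relative to DMSO controls. Hits exceeded the DMSO false-positive mean by five standard deviations and were then visually confirmed.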
Tests used:
[1] = system: HeLa K (ENP1 immunofluorescence, +LMB); assay: fraction of cells with nucleolar or nucleolar/nucleoplasmic ENP1 signal (MainHitrate); higher = more cells with nucleolar/nuclear readout signal (for ENP1 -LMB: less RNAPI inhibition; for +LMB ENP1 and RP reporters: stronger nuclear/nucleolar retention, i.e. ribosome biogenesis defect); details: concentration: 1 µM; treatment time: 6 h; ENP1 +LMB; leptomycin B: 20 nM, last 1.5 h
[2] = system: HeLa K (ENP1 immunofluorescence, no LMB); assay: as above; details: concentration: 1 µM; treatment time: 6 h; ENP1 -LMB; leptomycin B: none
HeLa RPS2-YFP reporter = assay: fraction of reporter-positive cells with nuclear (nucleolar or nucleolar/nucleoplasmic) RPS2-YFP (MainHitrate); higher = more cells with nucleolar/nuclear readout signal (for ENP1 -LMB: less RNAPI inhibition; for +LMB ENP1 and RP reporters: stronger nuclear/nucleolar retention, i.e. ribosome biogenesis defect); details: concentration: 1 µM; treatment time: 6 h
HeLa RPL29-GFP reporter = assay: fraction of reporter-positive cells with nuclear (nucleolar or nucleolar/nucleoplasmic) RPL29-GFP (MainHitrate); higher = more cells with nucleolar/nuclear readout signal (for ENP1 -LMB: less RNAPI inhibition; for +LMB ENP1 and RP reporters: stronger nuclear/nucleolar retention, i.e. ribosome biogenesis defect); details: concentration: 1 µM; treatment time: 6 h

| Compound | fraction [1] | fraction [2] | fraction of reporter-positive cells with nuclear (HeLa RPS2-YFP reporter) | fraction of reporter-positive cells with nuclear (HeLa RPL29-GFP reporter) |
| --- | --- | --- | --- | --- |
| N=C(N)NC(=N)NCCc1ccccc1 [Phenformin hydrochloride] | 0.143 ± 0.21 | 0.991 ± 0.015 | 0.126 ± 0.065 | 0.215 ± 0.056 |
| C=C[C@H]1CN2CC[C@H]1C[C@H]2[C@H](O)c1ccnc2ccc(OC)cc12 [Quinine hydrochloride dihydrate] | 0.0954 ± 0.11 | 0.9946 ± 0.0094 | 0.106 ± 0.089 | 0.23 ± 0.058 |
| CC(C)[C@H](N)C(=O)OCCOCn1cnc2c(=O)nc(N)[nH]c21 [Valaciclovir HCl] | 0.112 ± 0.14 | 0.99 ± 0.018 | 0.122 ± 0.085 | 0.24 ± 0.073 |
| CC(C)(Sc1cc(C(C)(C)C)c(O)c(C(C)(C)C)c1)Sc1cc(C(C)(C)C)c(O)c(C(C)(C)C)c1 [Probucol] | 0.111 ± 0.17 | 0.993 ± 0.012 | 0.113 ± 0.088 | 0.23 ± 0.078 |
| CCCCCCCCCCCC[N+](C)(C)CCOc1ccccc1 [Domiphen Bromide] | 0.0425 ± 0.059 | 0.993 ± 0.013 | 0.14 ± 0.085 | 0.199 ± 0.046 |
| Cc1ncc(C[n+]2csc(CCO)c2C)c(N)n1 [Thiamine HCl (Vitamin B1)] | 0.116 ± 0.17 | 0.982 ± 0.032 | 0.105 ± 0.088 | 0.202 ± 0.076 |
| COc1cccc(N(C)C(=S)Oc2ccc3c(c2)CCCC3)n1 [Liranaftate] | 0.0872 ± 0.11 | 0.99 ± 0.017 | 0.117 ± 0.088 | 0.231 ± 0.077 |
| CCc1ccc(CCOc2ccc(CC3SC(=O)NC3=O)cc2)nc1 (stereo not given) [Pioglitazone (Actos)] | 0.0797 ± 0.099 | 0.988 ± 0.021 | 0.105 ± 0.1 | 0.253 ± 0.074 |
| CCCC(=O)O[C@]1(C(=O)COC(C)=O)CC[C@H]2[C@@H]3C[C@H](F)C4=CC(=O)C=C[C@]4(C)[C@@]3(F)[C@@H](O)C[C@@]21C [Difluprednate] | 0.0989 ± 0.14 | 0.9971 ± 0.0049 | 0.138 ± 0.12 | 0.257 ± 0.085 |
| CC(C)NCC(O)c1cc(O)cc(O)c1 (stereo not given) [Metaproterenol Sulfate] | 0.125 ± 0.16 | 0.9946 ± 0.0094 | 0.178 ± 0.17 | 0.319 ± 0.26 |
| NS(=O)(=O)c1cc2c(cc1Cl)N=CNS2(=O)=O [Chlorothiazide] | 0.101 ± 0.11 | 0.9984 ± 0.0027 | 0.118 ± 0.078 | 0.232 ± 0.062 |
| Cc1c(OCC(F)(F)F)ccnc1C[S@@+]([O-])c1nc2ccccc2[nH]1 [Dexlansoprazole] | 0.122 ± 0.19 | 0.988 ± 0.021 | 0.124 ± 0.11 | 0.187 ± 0.056 |
| CCOC(=O)OC(C)OC1=C(C(=O)Nc2ccccn2)N(C)S(=O)(=O)c2ccccc21 (stereo not given) [Ampiroxicam] | 0.0817 ± 0.12 | 0.993 ± 0.012 | 0.139 ± 0.1 | 0.202 ± 0.082 |
| COc1ncnc(NS(=O)(=O)c2ccc(N)cc2)c1OC [Sulfadoxine (Sulphadoxine)] | 0.115 ± 0.15 | 0.993 ± 0.012 | 0.134 ± 0.088 | 0.226 ± 0.082 |
| CC(C)(C)c1cc(C(C)(C)C)c(NC(=O)c2c[nH]c3ccccc3c2=O)cc1O [Ivacaftor (VX-770)] | 0.0533 ± 0.03 | 0.998 ± 0.0035 | 0.106 ± 0.07 | 0.228 ± 0.076 |
| Nc1nc(F)nc2c1ncn2[C@@H]1O[C@H](COP(=O)(O)O)[C@@H](O)[C@@H]1O [Fludarabine Phosphate (Fludara)] | 0.11 ± 0.087 | 0.9983 ± 0.003 | 0.107 ± 0.048 | 0.191 ± 0.072 |
| NC(=O)c1cnccn1 [Pyrazinamide (Pyrazinoic acid amide)] | 0.131 ± 0.15 | 0.999 ± 0.0018 | 0.116 ± 0.062 | 0.196 ± 0.086 |
| CCc1c2c(nc3ccc(OC(=O)N4CCC(N5CCCCC5)CC4)cc13)-c1cc3c(c(=O)n1C2)COC(=O)[C@]3(O)CC [Irinotecan] | 0.111 ± 0.1 | 0.9971 ± 0.0051 | 0.0967 ± 0.052 | 0.204 ± 0.069 |
| CC(C)/N=c1\cc2n(-c3ccc(Cl)cc3)c3ccccc3nc-2cc1Nc1ccc(Cl)cc1 [Clofazimine] | 0.113 ± 0.17 | 0.989 ± 0.018 | 0.16 ± 0.14 | 0.224 ± 0.054 |
| Clc1ccc(C(Cn2ccnc2)OCc2ccsc2Cl)c(Cl)c1 (stereo not given) [Tioconazole] | 0.0969 ± 0.14 | 0.992 ± 0.013 | 0.125 ± 0.084 | 0.211 ± 0.076 |
| Cc1ccc(C(=O)c2cc(O)c(O)c([N+](=O)[O-])c2)cc1 [Tolcapone] | 0.0895 ± 0.14 | 0.9944 ± 0.0098 | 0.119 ± 0.094 | 0.225 ± 0.073 |
| CCOc1ccccc1OC(c1ccccc1)C1CNCCO1 (stereo not given) [Reboxetine mesylate] | 0.0986 ± 0.14 | 0.958 ± 0.072 | 0.096 ± 0.073 | 0.209 ± 0.04 |
| C[C@@H]1C[C@H]2[C@@H]3CCC4=CC(=O)C=C[C@]4(C)[C@@]3(Cl)[C@@H](O)C[C@]2(C)[C@@]1(OC(=O)c1ccco1)C(=O)CCl [Mometasone furoate] | 0.0809 ± 0.12 | 0.994 ± 0.01 | 0.13 ± 0.1 | 0.255 ± 0.063 |
| CCOC(=O)c1c(CSc2ccccc2)n(C)c2cc(Br)c(O)c(CN(C)C)c12 [Arbidol HCl] | 0.103 ± 0.13 | 0.989 ± 0.018 | 0.1 ± 0.071 | 0.27 ± 0.068 |
| Clc1ccc(CCC(Cn2ccnc2)Sc2c(Cl)cccc2Cl)cc1 (stereo not given) [Butoconazole nitrate] | 0.0852 ± 0.12 | 0.992 ± 0.014 | 0.103 ± 0.074 | 0.238 ± 0.069 |

One compound at a time, as listed above.
CCOc1ccccc1OC(c1ccccc1)C1CNCCO1 (stereo not given) [Reboxetine mesylate] as listed: fraction [1]: 0.0986 ± 0.14; fraction [2]: 0.958 ± 0.072; fraction of reporter-positive cells with nuclear (HeLa RPS2-YFP reporter): 0.096 ± 0.073; fraction of reporter-positive cells with nuclear (HeLa RPL29-GFP reporter): 0.209 ± 0.04
NS(=O)(=O)c1cc2c(cc1Cl)N=CNS2(=O)=O [Chlorothiazide] as listed: fraction [1]: 0.101 ± 0.11; fraction [2]: 0.9984 ± 0.0027; fraction of reporter-positive cells with nuclear (HeLa RPS2-YFP reporter): 0.118 ± 0.078; fraction of reporter-positive cells with nuclear (HeLa RPL29-GFP reporter): 0.232 ± 0.062

— the supplement of paper PMC12542422
